{"source": "PubChem BioAssay AID624297", "about": "(National Center for Advancing Translational Sciences (NCATS), 2012)", "note": "Hit rate of the full screen: of about 340,000 compounds, about 6,200 (1.8%) were called active. The shares of active, inactive and inconclusive entries below differ from those in the screen. The call rests on the fitted dose curve; in most records, active means well fitted activation curve with a large enough effect; inconclusive means small, poorly fitted or top-dose-only effect; inactive means no such curve, though single readings can be large or run the other way. Where the call is inconclusive, the potency comes from a doubtful curve fit. Potency means the concentration at half of the fitted maximal effect."}
{"experiment": "A quantitative high throughput screen for small molecules that induce DNA re-replication in SW480 colon adenocarcinoma cells; further: nearly all actives have a fitted effect of over 55% in size.", "details": "Hoechst DNA content imaging, 48 h; series mostly up to 46.1 µM", "method_in_brief": "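Quantitative HTS format with DMSO vehicle controls; 48 hr drug incubation at 37 C, then 40 min Hoechst staining and scanning imager measurement at 405 nm excitation.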"}
{"smiles": "COc1ccccc1NS(=O)(=O)c1cc(NC(=O)c2cc[n+]([O-])cc2)ccc1N1CCCC1", "Potency": "inconclusive: 23.1 µM [activator, single point]"}
{"smiles": "CCOC(=O)C1=C(C)N(C[C@@H]2CC[C@@H](Cc3ccc(-c4ccccc4)cc3)O2)C(=O)NC1c1ccc([N+](=O)[O-])cc1", "note": "(stereo partly drawn)", "Potency": "inconclusive: 4.61 µM [activator, partial curve, poor fit]"}
{"smiles": "COc1ccc2cc1Oc1ccc(cc1)C[C@H]1c3c(cc(OC)c4c3Oc3c(ccc5c3[C@H](C2)N(C)CC5)O4)CCN1C", "Potency": "inconclusive: 8.2 µM [activator, partial curve]"}
{"smiles": "CN(Cc1ccccc1)C(=O)CC(c1ccccc1)c1cc(Cl)ccc1O", "note": "(stereo not drawn)", "Potency": "inconclusive: 16.4 µM [activator, partial curve, poor fit]"}
{"smiles": "OCCC1CN(Cc2cccc(O)c2)CCN1CCc1ccccc1", "note": "(stereo not drawn)", "Potency": "inconclusive: 1.64 µM [activator, partial curve, poor fit]"}
{"smiles": "CN(C)CCN(C(=O)c1cc(Cl)sc1Cl)c1nc2ccc(F)cc2s1", "Potency": "inactive"}
{"smiles": "CCC1=Nc2cc(C(=O)NCCCOC(C)C)ccc2Sc2ccccc21", "Potency": "inconclusive: 29.1 µM [activator, single point]"}
{"smiles": "Cc1cc(C)c(NC(=O)Cn2nnc(C(=O)Nc3ccc(F)cc3F)c2N)c(C)c1", "Potency": "inconclusive: 7.31 µM [activator, partial curve, poor fit]"}
{"smiles": "Cc1ccc(C2CC(=O)NC(SCc3ccccc3)=C2C#N)o1", "note": "(stereo not drawn)", "Potency": "inconclusive: 5.8 µM [activator, full curve, poor fit]"}
{"smiles": "CCn1nc(C(=O)NNC(=O)c2cc(Cl)ccc2OC)c2ccccc2c1=O", "Potency": "inactive"}
{"smiles": "Cc1ccc(C)c(N2CCN(S(=O)(=O)c3cn(C)cn3)CC2)c1", "Potency": "inconclusive: 31.6 µM [activator, single point]"}
{"smiles": "COc1ccccc1N(CC(=O)NCc1ccc2c(c1)OCO2)C(=O)CCC(=O)Nc1nccs1", "Potency": "inactive"}
{"smiles": "CCOC(=O)CN1CC23C=CC(O2)C(C(=O)NCc2ccccc2OC)C3C1=O", "note": "(stereo not drawn)", "Potency": "inactive"}
{"smiles": "O=C(NNc1ncnc2c1cnn2-c1ccccc1)c1cccs1", "Potency": "inactive"}
{"smiles": "CC(=O)n1c2c(c3ccccc31)OC(N)=C(C#N)C2c1cccc(Cl)c1Cl", "note": "(stereo not drawn)", "Potency": "inconclusive: 18.4 µM [activator, single point]"}
{"smiles": "O=C(CCN1C(=O)C2CC=CCC2C1=O)Nc1ccc(S(=O)(=O)N2CCCCC2)cc1", "note": "(stereo not drawn)", "Potency": "inactive"}
{"smiles": "CN(NS(=O)(=O)c1ccc(Cl)cc1)c1ncc(C(F)(F)F)cc1Cl", "Potency": "inactive"}
{"smiles": "Cc1ccc(S(=O)(=O)NNc2ccccc2)cc1", "Potency": "inconclusive: 17.8 µM [activator, partial curve, poor fit]"}
